Laboratory results reported in publication PMC6687201, “Atg11 tethers Atg9 vesicles to initiate selective autophagy” (PLoS Biology, 2019).
These are yes or no findings as the source states them, for the method shown. Binding seen in cells or lysates may run through a third protein. Some entries that bind do so weakly or less than the wild type. Where a sequence is shown, tags or fusion partners need not be part of it.

How the values were obtained:
[1] = molecular target: T1, GFP-tagged Atg11 (S. cerevisiae) (UniProt Q12527); assay: co-IP; IP of GFP-tagged Atg11 or its fragments, co-IP of HA-tagged Atg9; lysates of log-phase growing and 2 h starved cells
T1 sequence: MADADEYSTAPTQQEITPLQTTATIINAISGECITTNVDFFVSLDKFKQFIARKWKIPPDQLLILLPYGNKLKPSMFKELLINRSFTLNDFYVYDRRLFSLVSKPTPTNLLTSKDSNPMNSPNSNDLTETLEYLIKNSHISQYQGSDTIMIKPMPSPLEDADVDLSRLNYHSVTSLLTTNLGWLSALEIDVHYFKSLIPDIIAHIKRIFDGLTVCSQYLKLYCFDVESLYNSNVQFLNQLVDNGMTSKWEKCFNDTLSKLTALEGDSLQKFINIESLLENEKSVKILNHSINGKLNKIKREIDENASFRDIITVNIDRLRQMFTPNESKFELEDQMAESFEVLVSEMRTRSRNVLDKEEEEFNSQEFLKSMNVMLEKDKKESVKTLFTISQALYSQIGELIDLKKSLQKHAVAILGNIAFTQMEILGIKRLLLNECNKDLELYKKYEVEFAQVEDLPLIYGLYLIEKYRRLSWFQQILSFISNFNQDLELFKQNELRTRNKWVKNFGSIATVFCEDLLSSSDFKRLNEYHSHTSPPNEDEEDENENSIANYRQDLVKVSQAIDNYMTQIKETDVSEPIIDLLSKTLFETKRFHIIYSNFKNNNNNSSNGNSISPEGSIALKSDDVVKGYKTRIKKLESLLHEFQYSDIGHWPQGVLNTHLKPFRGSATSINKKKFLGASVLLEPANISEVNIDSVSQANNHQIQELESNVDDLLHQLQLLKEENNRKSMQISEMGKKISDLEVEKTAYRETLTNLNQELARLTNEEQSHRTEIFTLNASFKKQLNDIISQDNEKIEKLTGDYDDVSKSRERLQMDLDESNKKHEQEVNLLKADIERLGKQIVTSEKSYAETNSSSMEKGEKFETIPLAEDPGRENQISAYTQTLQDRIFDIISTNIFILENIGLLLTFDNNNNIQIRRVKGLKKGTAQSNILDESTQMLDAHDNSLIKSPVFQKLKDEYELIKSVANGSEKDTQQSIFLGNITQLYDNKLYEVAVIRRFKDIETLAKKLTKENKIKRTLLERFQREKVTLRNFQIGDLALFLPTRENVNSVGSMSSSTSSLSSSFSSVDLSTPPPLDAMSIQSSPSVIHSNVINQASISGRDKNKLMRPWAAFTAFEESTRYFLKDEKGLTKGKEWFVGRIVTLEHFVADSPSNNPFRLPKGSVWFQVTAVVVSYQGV

[2] = molecular target: T2, GFP-tagged Atg11^ΔC (residues 1-667) (S. cerevisiae) (UniProt Q12527); assay: as above
T2 sequence: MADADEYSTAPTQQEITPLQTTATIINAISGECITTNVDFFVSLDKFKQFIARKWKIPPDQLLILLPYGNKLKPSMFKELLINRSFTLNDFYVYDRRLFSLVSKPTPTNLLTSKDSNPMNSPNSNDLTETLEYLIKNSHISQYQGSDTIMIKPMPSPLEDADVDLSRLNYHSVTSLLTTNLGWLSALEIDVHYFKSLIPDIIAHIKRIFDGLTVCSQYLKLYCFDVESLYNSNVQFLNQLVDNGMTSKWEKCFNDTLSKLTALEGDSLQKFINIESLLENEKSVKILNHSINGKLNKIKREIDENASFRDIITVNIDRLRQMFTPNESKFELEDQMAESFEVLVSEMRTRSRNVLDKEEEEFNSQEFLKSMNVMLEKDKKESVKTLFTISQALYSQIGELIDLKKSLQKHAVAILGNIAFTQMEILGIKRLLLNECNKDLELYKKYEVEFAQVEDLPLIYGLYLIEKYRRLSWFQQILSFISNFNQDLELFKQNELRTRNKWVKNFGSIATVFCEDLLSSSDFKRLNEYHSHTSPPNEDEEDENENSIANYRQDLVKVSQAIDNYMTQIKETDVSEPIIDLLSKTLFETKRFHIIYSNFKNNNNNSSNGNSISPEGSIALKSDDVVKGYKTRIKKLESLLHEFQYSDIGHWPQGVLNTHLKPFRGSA

[3] = molecular target: T3, myc-tagged full length Atg11 (S. cerevisiae, UniProt Q12527 1-1178); assay: co-IP; IP of myc-tagged Atg11 (anti-myc, Protein A magnetic beads), co-IP of HA-tagged Atg9; lysates of WT, atg13Δ, atg17Δ, atg29Δ and atg31Δ cells, log phase and starved; 25 mM Tris-HCl pH 7.2, 150 mM NaCl, 0.2% NP-40
T3 construct: Atg11, scaffolding protein of selective autophagy, yeast; also called Atg11-myc; myc-Atg11; source: yeast cells expressing myc-tagged Atg11, in lysate
T3 sequence (looked up): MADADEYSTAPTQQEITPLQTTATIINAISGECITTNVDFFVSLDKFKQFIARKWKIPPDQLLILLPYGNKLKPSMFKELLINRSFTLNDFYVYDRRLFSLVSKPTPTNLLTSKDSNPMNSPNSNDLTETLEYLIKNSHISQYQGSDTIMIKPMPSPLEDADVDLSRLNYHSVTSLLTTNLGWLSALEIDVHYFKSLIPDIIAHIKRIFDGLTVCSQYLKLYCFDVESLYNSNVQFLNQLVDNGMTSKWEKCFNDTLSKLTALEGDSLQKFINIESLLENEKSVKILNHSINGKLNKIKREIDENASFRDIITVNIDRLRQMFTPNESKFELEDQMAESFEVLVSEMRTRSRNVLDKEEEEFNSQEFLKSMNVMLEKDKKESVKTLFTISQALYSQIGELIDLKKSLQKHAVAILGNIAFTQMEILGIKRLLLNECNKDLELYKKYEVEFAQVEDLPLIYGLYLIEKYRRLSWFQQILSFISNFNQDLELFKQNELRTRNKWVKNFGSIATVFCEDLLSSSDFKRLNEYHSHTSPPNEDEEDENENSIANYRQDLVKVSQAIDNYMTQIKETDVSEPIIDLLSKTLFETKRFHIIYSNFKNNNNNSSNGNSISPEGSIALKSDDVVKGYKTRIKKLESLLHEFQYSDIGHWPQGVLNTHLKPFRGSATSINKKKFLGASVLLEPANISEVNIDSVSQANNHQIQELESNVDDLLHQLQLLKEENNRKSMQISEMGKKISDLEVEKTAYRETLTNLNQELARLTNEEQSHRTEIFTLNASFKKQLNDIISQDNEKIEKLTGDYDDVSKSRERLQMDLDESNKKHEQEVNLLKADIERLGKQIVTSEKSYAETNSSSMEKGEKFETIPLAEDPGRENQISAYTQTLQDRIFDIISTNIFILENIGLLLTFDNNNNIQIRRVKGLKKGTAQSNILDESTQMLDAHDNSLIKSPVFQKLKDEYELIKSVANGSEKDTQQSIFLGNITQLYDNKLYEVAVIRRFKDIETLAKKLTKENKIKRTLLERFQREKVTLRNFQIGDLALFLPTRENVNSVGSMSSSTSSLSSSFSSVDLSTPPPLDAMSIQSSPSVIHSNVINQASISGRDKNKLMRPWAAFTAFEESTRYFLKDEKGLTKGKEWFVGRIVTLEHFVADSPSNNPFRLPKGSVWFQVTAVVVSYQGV

[4] = molecular target: T3, myc-tagged full length Atg11; assay: co-IP; IP of Atg11-myc and co-IP of HA-Atg9 from lysates of nonstarved cells with buffer or purified Atg17 (1, 4 μM) added

Measured: binding

B1: HA-tagged Atg9 (natural protein, S. cerevisiae, UniProt Q12142 1-997, looked up)
chain: MERDEYQLPNSHGKNTFLSRIFGLQSDEVNPSLNSQEMSNFPLPDIERGSSLLHSTNDSREDVDENDLRVPESDQGTSTEEEDEVDEEQVQAYAPQISDGLDGDHQLNSVTSKENVLETEKSNLERLVEGSTDDSVPKVGQLSSEEEEDNEFINNDGFDDDTPLFQKSKIHEFSSKKSNTIEDGKRPLFFRHILQNNRPQRDTQKLFTSSNAIHHDKDKSANNGPRNINGNQKHGTKYFGSATQPRFTGSPLNNTNRFTKLFPLRKPNLLSNISVLNNTPEDRINTLSVKERALWKWANVENLDIFLQDVYNYYLGNGFYCIILEKILNICTLLFVVFVSTYMGHCVDYSKLPTSHRVSDIIIDKCYSNSITGFTKFFLWMFYFFVILKIVQLYFDVQKLSELQNFYKYLLNISDDELQTLPWQNVIQQLMYLKDQNAMTANVVEVKAKNRIDAHDVANRIMRRENYLIALYNSDILNLSLPIPLFRTNVLTKTLEWNINLCVMGFVFNESGFIKQSILKPSQREFTREELQKRFMLAGFLNIILAPFLVTYFVLLYFFRYFNEYKTSPGSIGARQYTPIAEWKFREYNELYHIFKKRISLSTTLANKYVDQFPKEKTNLFLKFVSFICGSFVAILAFLTVFDPENFLNFEITSDRSVIFYITILGAIWSVSRNTITQEYHVFDPEETLKELYEYTHYLPKEWEGRYHKEEIKLEFCKLYNLRIVILLRELTSLMITPFVLWFSLPSSAGRIVDFFRENSEYVDGLGYVCKYAMFNMKNIDGEDTHSMDEDSLTKKIAVNGSHTLNSKRRSKFTAEDHSDKDLANNKMLQSYVYFMDDYSNSENLTGKYQLPAKKGYPNNEGDSFLNNKYSWRKQFQPGQKPELFRIGKHALGPGHNISPAIYSTRNPGKNWDNNNNGDDIKNGTNNATAKNDDNNGNNDHEYVLTESFLDSGAFPNHDVIDHNKMLNSNYNGNGILNKGGVLGLVKEYYKKSDVGR
notes: Atg9, transmembrane autophagy protein, yeast; also called HA-Atg9; source: yeast cells expressing HA-tagged Atg9, in lysate
binds: all assays above
